From US4087390A (Eli Lilly and Company, priority 1977, dated 1978) come the findings set out here.

HELM strings list residues between dots; [ac] is acetyl, [am] amide, other brackets name non-standard units.

The data set can be described thus: general procedure: Boc solid-phase peptide synthesis; chloromethylated resin or hydroxymethyl resin.

Take “PEPTIDE1{A.[dV].C.K.N.F.F.[dW].K.T.F.T.S.C}$PEPTIDE1,PEPTIDE1,3:R3-14:R3$$$V2.0”: the oxidative folding yield (oxidative folding step, from reduced form) turned out to be 31.6%. For the setting “purification step”, this substance came in with a step yield of 88.5% recovery. For the setting “whole synthesis”, this substance displayed an isolated yield of 25.7%.
